This series in a line: self-splicing fitness, log relative to wild type (ln ratio); higher = more splicing; Tetrahymena group I intron in knt gene, E. coli kanamycin selection, DiMSum; sequences stand for … in CUCUCU…GGAGGGAAAAGUUAUCAGGCAUGCACCUGGUAGCUAGUCUUUAAACCAAUAGAUUGCAUCGGUUUAAAAGGCAAGACCGUCAAAUUGCGGGAAAGGGGUCAACAGCCGUUCAGUACCAAGUCUCAGGGGAAACUUUGAGAUGGCCUUGCAAAGGGUAUGGUAAUAAGCUGACGGACAUGGUCCUAACCACGCAGCCAAGUCCUAAGUCAACAGAUCUUCUGUUGAUAUGGAUGCAGUUCACAGACUAAAUGUCGGUCGGGGAAGAUGUAUUCUUCUCAUAAGAUAUAGUCGGACCUCUCCUUAAUGGGAGCUAGCGGAUGAAGUGAUGCAACACUGGAGCCGCUGGGAACUAAUUUGUAUGCGAAAGUAUAUUGAUUAGUUUUGGAGUACUCGUGGUCG
The method, boiled down: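 DiMSum derived fitness as the error-weighted combination of fold changes across replicates, kanamycin versus no kanamycin, normalised to wild type. E. coli BL21(DE3) held the library, which randomised all eight P1ex-region intron nucleotides within the knt kanamycin-resistance gene on pET-22b(+). Six replicate transformations grew overnight at 37°C or 30°C on LB agar with or without 25 μg/mL kanamycin, also containing 100 μg/mL carbenicillin, 50 μM IPTG and 0.2% rhamnose, and pooled colonies were amplicon-sequenced on an Illumina HiSeq 2500.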

The text below walks through data of the supplement of paper PMC7877785.

± gives the uncertainty stated by the source. Many of these values have a large error.

In the case of GUGUAGCAAUAUUACGCAGC, the “self-splicing fitness (ln)” value (37 °C) is -2.62 ± 0.55. As for UCUGAGCAAUAUUACGCCCU, the “self-splicing fitness (ln)” value (30 °C) was -3.91 ± 0.75. AGGCAGCAAUAUUACGAAAC: the “self-splicing fitness (ln)” value runs as follows: (30 °C) -3.58 ± 0.22; (37 °C) -1.8 ± 0.19. As to UAAGAGCAAUAUUACGAACU, the “self-splicing fitness (ln)” value (37 °C) was -0.778 ± 0.82. Still for that read-out and setting: in the case of GAACAGCAAUAUUACGUUCC it was -3.21 ± 0.6.

For the sequence GUUUAGCAAUAUUACGCUGC, the “self-splicing fitness (ln)” value is, setting by setting: (30 °C) -2.83 ± 0.76; (37 °C) -1.63 ± 0.7. For the sequence CCCUAGCAAUAUUACGAUUC, under “37 °C”, the “self-splicing fitness (ln)” value was -3.33 ± 1. Still for that read-out and setting: the value for UCGGAGCAAUAUUACGCCCC was -0.595 ± 1.4. Take GGGGAGCAAUAUUACGCUGU: under “37 °C”, the “self-splicing fitness (ln)” value is -1.79 ± 1.2. The same measure, in the same setting: in the case of GUGGAGCAAUAUUACGGCUC it was -1.39 ± 0.87. In the case of GACGAGCAAUAUUACGGAGA, the “self-splicing fitness (ln)” value (30 °C) was -4.47 ± 1. GUUAAGCAAUAUUACGUCGC: the “self-splicing fitness (ln)” value runs as follows: (30 °C) -1.61 ± 0.21; (37 °C) -1.83 ± 0.28. For CUCGAGCAAUAUUACGCGAC, where the note is “30 °C”, the “self-splicing fitness (ln)” value is -1.96 ± 1.2.

On to AUGAAGCAAUAUUACGACCC, for which, under “37 °C”, the “self-splicing fitness (ln)” value amounted to 0.554 ± 0.53. CCAGAGCAAUAUUACGGACC: the “self-splicing fitness (ln)” value is -2.73 ± 0.55 (30 °C) and -1.17 ± 0.74 (37 °C). The like results for GCUUAGCAAUAUUACGCCUC were, in that order, 0.274 ± 0.64 and -0.539 ± 0.56. Turning to CGGAAGCAAUAUUACGCAAC, the “self-splicing fitness (ln)” value (37 °C) was -2.63 ± 0.61. With GCGGAGCAAUAUUACGCAUG, where the note is “30 °C”, the “self-splicing fitness (ln)” value was -4.09 ± 0.75. As for AGAGAGCAAUAUUACGGUAC, the “self-splicing fitness (ln)” value (30 °C) is -2.29 ± 0.64. Consider UCGGAGCAAUAUUACGAUGC, for which the “self-splicing fitness (ln)” value (37 °C) stood at 0.406 ± 1.2. CCGUAGCAAUAUUACGAAGC: the “self-splicing fitness (ln)” value is, setting by setting: (30 °C) 0.0563 ± 0.84; (37 °C) -1.17 ± 0.64. Take CAGCAGCAAUAUUACGGACC: the “self-splicing fitness (ln)” value (30 °C) is -3.25 ± 0.54. Regarding GCUGAGCAAUAUUACGUGGC, the “self-splicing fitness (ln)” value (30 °C) was -1.55 ± 0.71 and the “self-splicing fitness (ln)” value (37 °C) was -1.52 ± 0.64.

As to UGAAAGCAAUAUUACGUCUG, the “self-splicing fitness (ln)” value (30 °C) was -0.102 ± 0.071 and the “self-splicing fitness (ln)” value (37 °C) worked out at 0.773 ± 0.09. With UAGUAGCAAUAUUACGAUGU, for the setting “30 °C”, the “self-splicing fitness (ln)” value was -4.3 ± 0.72. For the sequence AAAUAGCAAUAUUACGAGCC, where the note is “37 °C”, the “self-splicing fitness (ln)” value is -0.773 ± 0.59. For the sequence UUUUAGCAAUAUUACGUACC, for the setting “37 °C”, the “self-splicing fitness (ln)” value was -0.786 ± 0.64. Regarding UCAGAGCAAUAUUACGUCGU, the “self-splicing fitness (ln)” value (30 °C) is -2.89 ± 0.24 and the “self-splicing fitness (ln)” value (37 °C) is -0.54 ± 0.24. As for CACGAGCAAUAUUACGCUCC, the “self-splicing fitness (ln)” value was -3.44 ± 0.53 (30 °C) and -1.98 ± 0.66 (37 °C). For the sequence GAGUAGCAAUAUUACGUCAC, under “37 °C”, the “self-splicing fitness (ln)” value was -3.99 ± 0.72. For the sequence CGGUAGCAAUAUUACGCCGU, the “self-splicing fitness (ln)” value (30 °C) is -5.78 ± 1 and the “self-splicing fitness (ln)” value (37 °C) is -2.98 ± 0.53. The like results for UAUGAGCAAUAUUACGACCU were, in that order, -2.36 ± 1.2 and -1.49 ± 0.6. The like results for CUGAAGCAAUAUUACGCAUU were, in that order, -2.24 ± 0.12 and -2.45 ± 0.17.

As for CGCAAGCAAUAUUACGCUUG, the “self-splicing fitness (ln)” value is -2.74 ± 0.2 (30 °C) and -1.87 ± 0.21 (37 °C). As to UCGAAGCAAUAUUACGACUC, the “self-splicing fitness (ln)” value (30 °C) is -4.32 ± 0.59. For the sequence UGGAAGCAAUAUUACGCUGA, the “self-splicing fitness (ln)” value (30 °C) was -3.72 ± 1. In the case of GAAUAGCAAUAUUACGAGGG, the “self-splicing fitness (ln)” value (30 °C) is -3.39 ± 0.18 and the “self-splicing fitness (ln)” value (37 °C) is -3.25 ± 0.19. Consider CGAUAGCAAUAUUACGAUAC, for which the “self-splicing fitness (ln)” value (30 °C) is -4.5 ± 0.59. On to CCAUAGCAAUAUUACGCAAC, for which the “self-splicing fitness (ln)” value (37 °C) was -3.2 ± 0.52. Consider GUGUAGCAAUAUUACGGUAG, for which the “self-splicing fitness (ln)” value (30 °C) was -3.17 ± 0.79. Consider UGUCAGCAAUAUUACGAUGC, for which the “self-splicing fitness (ln)” value (37 °C) was -1.51 ± 0.51. The same measure, in the same setting: in the case of UACGAGCAAUAUUACGCUCU it was -2.99 ± 0.61. Regarding GUCUAGCAAUAUUACGCGGU, the “self-splicing fitness (ln)” value (30 °C) is -1.78 ± 0.26 and the “self-splicing fitness (ln)” value (37 °C) was -1.04 ± 0.38.
